Data as given in article PMC11242348.
No constants are given. Whether binding was seen depends on the method and setting. Binding seen in cells or lysates may run through a third protein. Some entries that bind do so weakly or less than the wild type.

Chains of the proteins cited; added tags and fusions are not shown.
UniProt P38936: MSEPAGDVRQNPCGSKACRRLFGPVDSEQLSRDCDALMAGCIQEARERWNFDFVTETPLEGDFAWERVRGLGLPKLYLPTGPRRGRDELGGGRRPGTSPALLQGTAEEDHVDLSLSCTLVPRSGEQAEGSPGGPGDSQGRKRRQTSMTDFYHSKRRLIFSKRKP

Molecular target: p21 (human (endogenous in HCC cell lines)) (UniProt P38936)
Test: co-IP; 300 µg total protein lysate with 2 µg antibody against the protein of interest or control IgG overnight at 4°C; Protein A/G Plus-Agarose beads; four washes with IP lysis buffer; Western blot

B1: IRF7 (protein, UniProt Q92985 1-503)
chain: MALAPERAAPRVLFGEWLLGEISSGCYEGLQWLDEARTCFRVPWKHFARKDLSEADARIFKAWAVARGRWPPSSRGGGPPPEAETAERAGWKTNFRCALRSTRRFVMLRDNSGDPADPHKVYALSRELCWREGPGTDQTEAEAPAAVPPPQGGPPGPFLAHTHAGLQAPGPLPAPAGDKGDLLLQAVQQSCLADHLLTASWGADPVPTKAPGEGQEGLPLTGACAGGPGLPAGELYGWAVETTPSPGPQPAALTTGEAAAPESPHQAEPYLSPSPSACTAVQEPSPGALDVTIMYKGRTVLQKVVGHPSCTFLYGPPDPAVRATDPQQVAFPSPAELPDQKQLRYTEELLRHVAPGLHLELRGPQLWARRMGKCKVYWEVGGPPGSASPSTPACLLPRNCDTPIFDFRVFFQELVEFRARQRRGSPRYTIYLGFGQDLSAGRPKEKSLVLVKLEPWLCRVHLEGTQREGVSSLDSSSLSLCLSSANSLYDDIECFLMELEQPA
**Q.** For B1, which binding is on record?
**A.** The binding was “binds”.
